Data source: PubChem BioAssay AID1224826 (NIAID, 2016)

- Aim: 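Knock-downs that raise or lower Tnf reporter signal after endotoxin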 (primary screen)
- System: RAW264.7 G9 macrophages from mouse bearing reporters for p65 (GFP) and the Tnf promoter (mCherry)
- Reagents: siRNA pool against mouse genes, 100 nM
- Time to read-out: 16 h of LPS stimulation, after 2 days of siRNA transfection
- Challenge: bacterial lipopolysaccharide (Salmonella minnesota R595), 10 ng/ml
- Detection: 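Imaged Tnf reporter mCherry in nuclei, minus background, normalised per plate to the median and expressed as robust z-scores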
- Reading the numbers: Tnf reporter robust z-score: higher = stronger Tnf promoter reporter signal after LPS; Tnf reporter intensity: higher = stronger Tnf promoter reporter signal
- Rule for the call: 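a well counts as active at a score of -1.3 or below (Tlr4 knock-down control median) or above 3 (raised signal); controls and wells holding fewer than 50 cells are excluded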
- Calls: active = Tnf reporter clearly lowered or raised; inactive = no clear change in Tnf reporter
This is an unselected part of about 17,000 reagents tested. About 1,110 of them (6.6%) were called active. 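Active means lowered or raised reporter signal; replicate intensities are raw and not normalised per plate.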 A number with no mark means an inactive call. A reagent listed more than once was tested more than once; the source does not tell the runs apart.

target gene | Tnf reporter robust z-score | fewer than 50 cells in well | Tnf reporter intensity, replicate 1 | Tnf reporter intensity, replicate 2
Nudt11 (nudix hydrolase 11) | -0.05 | enough cells in well | 142 | 183
D630004N19Rik (RIKEN cDNA D630004N19 gene) | – | fewer than 50 cells per well; well left out of calls | 139 | 53.2
Gngt2 | -0.37 | enough cells in well | 202 | 152
Luzp2 (leucine zipper protein 2) | 0.39 | enough cells in well | 225 | 158
Casp2 (caspase 2) | -0.68 | enough cells in well | 112 | 125
Or51af1 (olfactory receptor family 51 subfamily AF member 1) | 1.74 | enough cells in well | 189 | 188
Tpm1 (tropomyosin 1, alpha) | -0.65 | enough cells in well | 100 | 187
Npm3 (nucleoplasmin 3) | -0.26 | enough cells in well | 183 | 128
Sec61a2 (SEC61 translocon subunit alpha 2) | 0.56 | enough cells in well | 140 | 99
Best1 (bestrophin 1) | -1.3 (active) | enough cells in well | 137 | 118
Appl1 | – | fewer than 50 cells per well; well left out of calls | 115 | 78.2
Appl1 | – | fewer than 50 cells per well; well left out of calls | 122 | 31.9
Pou3f3 (POU domain, class 3, transcription factor 3) | 1.09 | enough cells in well | 302 | 294
Cyp26b1 (cytochrome P450, family 26, subfamily b, polypeptide 1) | -0.51 | enough cells in well | 163 | 135
S100a9 (S100 calcium binding protein A9 (calgranulin B)) | 0.2 | enough cells in well | 307 | 234
Sec13 (SEC13 homolog, nuclear pore and COPII coat complex component) | 0.02 | enough cells in well | 102 | 88.9
Carnmt1 (carnosine N-methyltransferase 1) | -0.02 | enough cells in well | 256 | 67.2
Asb6 (ankyrin repeat and SOCS box-containing 6) | -0.47 | enough cells in well | 131 | 151
Apoo (apolipoprotein O) | 1.61 | enough cells in well | 341 | 136
Strn4 (striatin, calmodulin binding protein 4) | – | fewer than 50 cells per well; well left out of calls | 114 | 88.7
Hoga1 (4-hydroxy-2-oxoglutarate aldolase 1) | – | fewer than 50 cells per well; well left out of calls | 232 | 52.2
Man2c1 (mannosidase, alpha, class 2C, member 1) | 0.21 | enough cells in well | 277 | 225
Col25a1 (collagen, type XXV, alpha 1) | 1.11 | enough cells in well | 334 | 159
Sppl2a (signal peptide peptidase like 2A) | – | fewer than 50 cells per well; well left out of calls | 185 | 65.9
Gnb1 (guanine nucleotide binding protein (G protein), beta 1) | 1.02 | enough cells in well | 258 | 452
Or6c65 (olfactory receptor family 6 subfamily C member 65) | -0.37 | enough cells in well | 60.1 | 101
Fbxw16 (F-box and WD-40 domain protein 16) | -0.89 | enough cells in well | 134 | 97.9
Zbtb7b (zinc finger and BTB domain containing 7B) | -0.16 | enough cells in well | 199 | 240
Ankrd23 (ankyrin repeat domain 23) | 0.24 | enough cells in well | 236 | 190
Defa21 (defensin, alpha, 21) | – | fewer than 50 cells per well; well left out of calls | 311 | 83.4
A430093F15Rik (RIKEN cDNA A430093F15 gene) | -1.1 | enough cells in well | 92.5 | 99.9
Ccnk (cyclin K) | 0.45 | enough cells in well | 281 | 242
Elp3 (elongator acetyltransferase complex subunit 3) | -0.45 | enough cells in well | 169 | 90.7
Aadac (arylacetamide deacetylase) | 1.36 | enough cells in well | 214 | 263
Fscn1 (fascin actin-bundling protein 1) | -0.52 | enough cells in well | 224 | 182
Vdac1 (voltage-dependent anion channel 1) | – | fewer than 50 cells per well; well left out of calls | 75.7 | 40.8
Orm2 (orosomucoid 2) | -0.98 | enough cells in well | 96 | 91.6
Tmem72 (transmembrane protein 72) | – | fewer than 50 cells per well; well left out of calls | 58.7 | 39.1
Serbp1 (serpine1 mRNA binding protein 1) | 4.3 (active) | enough cells in well | 401 | 258
Rell2 (RELT-like 2) | – | fewer than 50 cells per well; well left out of calls | 126 | 63.3
Ripply3 (ripply transcriptional repressor 3) | -0.24 | enough cells in well | 143 | 125
Prdx1 (peroxiredoxin 1) | 0.62 | enough cells in well | 259 | 265
Birc3 (baculoviral IAP repeat-containing 3) | 1.38 | enough cells in well | 170 | 296
Fosb (Fos B proto-oncogene, AP-1 transcription factor subunit) | 0.01 | enough cells in well | 286 | 211
Krtap13-1 (keratin associated protein 13-1) | -0.35 | enough cells in well | 122 | 167
Casz1 (castor zinc finger 1) | 1.32 | enough cells in well | 305 | 292
Xrcc2 (X-ray repair complementing 2) | 0.39 | enough cells in well | 281 | 234
Vmn2r30 (vomeronasal 2, receptor 30) | -1.37 (active) | enough cells in well | 73.1 | 40.5
Tfpi2 (tissue factor pathway inhibitor 2) | -0.2 | enough cells in well | 229 | 118
Idh3a (isocitrate dehydrogenase 3 (NAD+) alpha) | 0.83 | enough cells in well | 245 | 169
Myh9 (myosin, heavy polypeptide 9, non-muscle) | 0.06 | enough cells in well | 311 | 175
Hlf (HLF transcription factor, PAR bZIP family) | 0.01 | enough cells in well | 262 | 154
Tas2r119 (taste receptor, type 2, member 119) | 0.06 | enough cells in well | 310 | 69.6
Tmem114 (transmembrane protein 114) | 1.88 | enough cells in well | 260 | 111
Or5k17 (olfactory receptor family 5 subfamily K member 17) | -1.3 (active) | enough cells in well | 107 | 46.7
Rab38 (RAB38, member RAS oncogene family) | -0.51 | enough cells in well | 292 | 146
Abcb7 (ATP-binding cassette, sub-family B member 7) | 0.53 | enough cells in well | 177 | 197
Dnase2b (deoxyribonuclease II beta) | 2.48 | enough cells in well | 310 | 233

Not a retest: entries from further up.
target gene | Tnf reporter robust z-score | fewer than 50 cells in well | Tnf reporter intensity, replicate 1 | Tnf reporter intensity, replicate 2
Ankrd23 (ankyrin repeat domain 23) | 0.24 | enough cells in well | 236 | 190
Defa21 (defensin, alpha, 21) | – | fewer than 50 cells per well; well left out of calls | 311 | 83.4
A430093F15Rik (RIKEN cDNA A430093F15 gene) | -1.1 | enough cells in well | 92.5 | 99.9
Ccnk (cyclin K) | 0.45 | enough cells in well | 281 | 242
